From US20190016764A1 (KYUNGPOOK NATIONAL UNIVERSITY INDUSTRY ACADEMIC COOPERATION …, published 2019)
No constants are given. Whether binding was seen depends on the method and setting. Some binding calls cover weakened binding; strength is not graded here. Sequences can lack the tags named with a protein.

T1: soluble EPCR (endothelial protein C receptor) (UniProt Q9UNN8)
T1 sequence (looked up): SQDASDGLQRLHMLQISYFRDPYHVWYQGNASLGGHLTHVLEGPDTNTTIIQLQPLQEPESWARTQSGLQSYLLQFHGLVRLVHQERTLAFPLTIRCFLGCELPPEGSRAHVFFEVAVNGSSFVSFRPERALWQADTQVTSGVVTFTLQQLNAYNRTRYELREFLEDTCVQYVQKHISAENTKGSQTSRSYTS

T2: EPCR in mouse vena cava (mouse, UniProt Q64695 18-242)
T2 construct: whole, on cells; Endogenous receptor in tissue sections of C57BL/6 mice; also called EPCR (mouse, in vivo)
T2 sequence (looked up): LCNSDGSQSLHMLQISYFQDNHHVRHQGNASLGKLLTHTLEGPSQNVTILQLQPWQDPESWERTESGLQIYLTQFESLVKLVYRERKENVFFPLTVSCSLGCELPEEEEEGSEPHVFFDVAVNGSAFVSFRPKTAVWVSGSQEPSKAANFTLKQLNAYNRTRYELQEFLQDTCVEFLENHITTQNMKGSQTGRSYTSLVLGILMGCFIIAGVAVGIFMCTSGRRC


Key:
[1] = target: T1, soluble EPCR (endothelial protein C receptor); assay: solid-phase ELISA on sEPCR
[2] = target: T1, soluble EPCR (endothelial protein C receptor); assay: summary of Example 3 (solid-phase ELISA on sEPCR)
EPCR in mouse vena cava = target: T2, EPCR in mouse vena cava; assay: immunohistochemistry of mouse vena cava after i.v. injection of the fluorescence-labelled molecule; colocalisation with anti-EPCR staining

binding [1] | binding [2] | binding (EPCR in mouse vena cava) | Binder
binds | binds | binds | TFG (TRAP-ferritin monomer fragment-PC-Gla fusion polypeptide) (other, also called TRAP-ferritin-PC-Gla; TFG nanocage) MGGTTFLLRNASGHMSSQIRQNYSTDVEAAVNSLVNLYLQASYTYLSLGFYFDRDDVALEGVSHFFRELAEEKREGYERLLKMQNQRGGRIFLQDIKKPAEDEWGKTPDAMKAAMALEKKLNQALLDLHALGSARTDPHLCDFLETHFLDEEVKLIKKMGDHLTNLHRLGGGSEFVDGGGSGTSANSFLEELRHSSLERECIEEICDFEEAKEIFQNVDDTLAFWSKHVLEHHHHHH
binds | binds | binds | TFMG (TRAP-ferritin monomer fragment-linker-PC-Gla fusion polypeptide) (other, also called TMFG; TFME) MGGTTFLLRNASGHMSSQIRQNYSTDVEAAVNSLVNLYLQASYTYLSLGFYFDRDDVALEGVSHFFRELAEEKREGYERLLKMQNQRGGRIFLQDIKKPAEDEWGKTPDAMKAAMALEKKLNQALLDLHALGSARTDPHLCDFLETHFLDEEVKLIKKMGDHLTNLHRLGGGSEFVDGGGSGTSGPLGLAGANSFLEELRHSSLERECIEEICDFEEAKEIFQNVDDTLAFWSKHVLEHHHHHH
